Source: patent US20240376186A1
No constants are given. Whether binding was seen depends on the method and setting. Binding calls can cover weak binding; strength is not graded here.

What was measured:
[1] = target: iC3b; experiment: bio-layer interferometry, EWEµH on anti-penta his biosensors, 3.125-50 nM iC3b
[2] = target: iC3b; experiment: bio-layer interferometry, summary of affinities (FIG. 10)
[3] = target: iC3b; experiment: bio-layer interferometry, binder on anti-penta his biosensors
[4] = target: iC3b; experiment: bio-layer interferometry, EWEnH on anti-penta his biosensors, 6.25-100 nM iC3b
[5] = target: iC3b; experiment: bio-layer interferometry, EWE-hC3Nb1 on anti-penta his biosensors, 3.125-50 nM iC3b

Measured: binding

B1: EWEµH (protein, not shown: small tags and cut ends)
chain: EWEQVQLVETGGGLVQAGGSLRLSCAASGSIFSINAMGWFRQAPGKEREFVATINRSGGRTYYADSVKGRFTISRDNGKNMVYLQMHSLKPEDTAIYYCAAGTGWSPQTDNEYNYWGQGTQVTVSSGGGGSGGGGSGGGGSGGGGSRPCGHPGDTPFGTFTLTGGNVFEYGVKAVYTCNEGYQLLGEINYRECDTDGWTNDIPICEVVKCLPVTAPENGKIVSSAMEPDREYHFGQAVRFVCNSGYKIEGDEEMHCSDDGFWSKEKPKCVEISCKSPDVINGSPISQKIIYKENERFQYKCNMGYEYSERGDAVCTESGWRPLPSCEEAGGGGGGGGGGGGGKCGPPPPIDNGDITSFPLSVYAPASSVEYQCQNLYQLEGNKRITCRNGQWSEPPKCLHPCVISREIMENYNIALRWTAKQKLYSRTGESVEFVCKRGYRLSSRSHTLRTTCWDGKLEYPTCAKRENLYFQG
binds: [1] | [2] | [3]

B2: EWEnH (protein, not shown: small tags and cut ends)
chain: EWEQVQLVETGGGLVQAGGSLRLSCAASGSIFSINAMGWFRQAPGKEREFVATINRSGGRTYYADSVKGRFTISRDNGKNMVYLQMHSLKPEDTAIYYCAAGTGWSPQTDNEYNYWGQGTQVTVSSGGGGSGGGGSGGGGSGGGGSRPCGHPGDTPFGTFTLTGGNVFEYGVKAVYTCNEGYQLLGEINYRECDTDGWTNDIPICEVVKCLPVTAPENGKIVSSAMEPDREYHFGQAVRFVCNSGYKIEGDEEMHCSDDGFWSKEKPKCVEISCKSPDVINGSPISQKIIYKENERFQYKCNMGYEYSERGDAVCTESGWRPLPSCEEA
binds: [4] | [2] | [3]

B3: EWE-hC3Nb1 (VHH, not shown: small tags and cut ends)
VHH: QVQLVETGGGLVQAGGSLRLSCAASGSIFSINAMGWFRQAPGKEREFVATINRSGGRTYYADSVKGRFTISRDNGKNMVYLQMHSLKPEDTAIYYCAAGTGWSPQTDNEYNYWGQGTQVTVSS
binds: [5] | [2] | [3]
